Laboratory results: paper doi:10.1101/2021.08.22.457263
These are yes or no findings as the source states them, for the method shown. For some of these results: In cells and extracts the contact can be indirect. Some binding calls cover weakened binding; strength is not graded here. Sequences can lack the tags named with a protein.

Sequences of proteins named here, by UniProt entry; tags and fusion partners are left off. Residues count along the entry.
UniProt P02787, residues 20-698: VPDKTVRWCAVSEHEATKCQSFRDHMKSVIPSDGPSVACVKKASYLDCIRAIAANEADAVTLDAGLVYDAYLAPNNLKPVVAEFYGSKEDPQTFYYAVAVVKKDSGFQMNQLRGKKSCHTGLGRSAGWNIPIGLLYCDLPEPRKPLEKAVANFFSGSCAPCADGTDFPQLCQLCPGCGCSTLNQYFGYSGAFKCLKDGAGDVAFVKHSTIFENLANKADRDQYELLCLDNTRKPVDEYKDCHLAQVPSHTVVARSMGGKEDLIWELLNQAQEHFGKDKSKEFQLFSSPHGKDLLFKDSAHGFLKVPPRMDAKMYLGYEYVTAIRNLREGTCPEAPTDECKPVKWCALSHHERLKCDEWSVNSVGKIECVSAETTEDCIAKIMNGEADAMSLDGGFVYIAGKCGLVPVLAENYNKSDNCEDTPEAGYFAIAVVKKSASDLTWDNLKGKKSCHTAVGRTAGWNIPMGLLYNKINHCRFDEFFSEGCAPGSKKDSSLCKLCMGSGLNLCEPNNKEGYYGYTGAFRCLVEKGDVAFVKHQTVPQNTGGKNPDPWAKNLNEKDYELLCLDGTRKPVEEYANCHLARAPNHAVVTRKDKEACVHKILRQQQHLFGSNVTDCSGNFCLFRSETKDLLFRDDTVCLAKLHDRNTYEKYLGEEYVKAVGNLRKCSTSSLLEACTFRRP

T1: M. catarrhalis transferrin binding protein B with C-terminal flag-tag (Mcat TbpB-flag) (Moraxella catarrhalis) (UniProt P0DTW7)
T1 sequence (chain, lipidated): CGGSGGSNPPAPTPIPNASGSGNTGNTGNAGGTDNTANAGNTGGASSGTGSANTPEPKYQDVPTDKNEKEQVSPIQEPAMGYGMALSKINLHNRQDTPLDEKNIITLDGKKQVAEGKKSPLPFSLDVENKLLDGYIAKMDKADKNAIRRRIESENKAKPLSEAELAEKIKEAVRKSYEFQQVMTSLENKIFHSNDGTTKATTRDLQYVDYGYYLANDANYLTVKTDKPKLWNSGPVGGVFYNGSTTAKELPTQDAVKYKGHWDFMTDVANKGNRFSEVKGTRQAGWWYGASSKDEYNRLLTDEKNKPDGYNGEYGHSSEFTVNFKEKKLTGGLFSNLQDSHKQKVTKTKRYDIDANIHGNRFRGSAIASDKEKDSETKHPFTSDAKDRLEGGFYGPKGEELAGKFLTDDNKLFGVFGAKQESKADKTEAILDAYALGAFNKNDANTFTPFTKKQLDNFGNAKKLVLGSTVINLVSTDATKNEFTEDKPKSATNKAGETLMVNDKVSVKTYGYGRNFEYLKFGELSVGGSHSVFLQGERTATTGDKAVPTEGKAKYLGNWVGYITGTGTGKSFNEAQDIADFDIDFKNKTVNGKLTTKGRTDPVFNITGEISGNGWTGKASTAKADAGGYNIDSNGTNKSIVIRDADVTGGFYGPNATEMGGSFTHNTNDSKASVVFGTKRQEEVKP

T2: His-tagged E. coli Skp, purified (E. coli) (UniProt P0AEU7)
T2 sequence: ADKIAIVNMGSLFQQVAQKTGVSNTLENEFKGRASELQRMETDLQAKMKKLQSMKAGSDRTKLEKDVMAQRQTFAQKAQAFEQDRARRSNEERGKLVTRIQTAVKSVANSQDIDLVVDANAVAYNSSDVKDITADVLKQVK


Columns and labels:
[1] = target: T1, M. catarrhalis transferrin binding protein B with C-terminal flag-tag (Mcat TbpB-flag) (Moraxella catarrhalis); test: far-Western, overlay or dot blot
[2] = target: T1, M. catarrhalis transferrin binding protein B with C-terminal flag-tag (Mcat TbpB-flag) (Moraxella catarrhalis); test: pull-down
[3] = target: T2, His-tagged E. coli Skp, purified (E. coli); test: pull-down

Molecule | binding [2] | also measured
Biotinylated human transferrin (from UniProt P02787 20-698) | – | binding [1]: binds
Periplasmic chaperone Skp of E. coli, endogenous (protein, UniProt P0AEU7 21-161) ADKIAIVNMGSLFQQVAQKTGVSNTLENEFKGRASELQRMETDLQAKMKKLQSMKAGSDRTKLEKDVMAQRQTFAQKAQAFEQDRARRSNEERGKLVTRIQTAVKSVANSQDIDLVVDANAVAYNSSDVKDITADVLKQVK | binds | –
His-tagged E. coli LolA, purified (protein, UniProt P61316 22-203) DAASDLKSRLDKVSSFHASFTQKVTDGSGAAVQEGQGDLWVKRPNLFNWHMTQPDESILVSDGKTLWFYNPFVEQATATWLKDATGNTPFMLIARNQSSDWQQYNIKQNGDDFVLTPKASNGNLKQFTINVGRDGTIHQFSAVEQDDQRSSYQLKSQQNGAVDAAKFTFTPPQGVTVDDQRK | binds | –
M. catarrhalis transferrin binding protein B with C-terminal flag-tag (Mcat TbpB-flag) (protein, UniProt P0DTW7 21-706, lipidated) CGGSGGSNPPAPTPIPNASGSGNTGNTGNAGGTDNTANAGNTGGASSGTGSANTPEPKYQDVPTDKNEKEQVSPIQEPAMGYGMALSKINLHNRQDTPLDEKNIITLDGKKQVAEGKKSPLPFSLDVENKLLDGYIAKMDKADKNAIRRRIESENKAKPLSEAELAEKIKEAVRKSYEFQQVMTSLENKIFHSNDGTTKATTRDLQYVDYGYYLANDANYLTVKTDKPKLWNSGPVGGVFYNGSTTAKELPTQDAVKYKGHWDFMTDVANKGNRFSEVKGTRQAGWWYGASSKDEYNRLLTDEKNKPDGYNGEYGHSSEFTVNFKEKKLTGGLFSNLQDSHKQKVTKTKRYDIDANIHGNRFRGSAIASDKEKDSETKHPFTSDAKDRLEGGFYGPKGEELAGKFLTDDNKLFGVFGAKQESKADKTEAILDAYALGAFNKNDANTFTPFTKKQLDNFGNAKKLVLGSTVINLVSTDATKNEFTEDKPKSATNKAGETLMVNDKVSVKTYGYGRNFEYLKFGELSVGGSHSVFLQGERTATTGDKAVPTEGKAKYLGNWVGYITGTGTGKSFNEAQDIADFDIDFKNKTVNGKLTTKGRTDPVFNITGEISGNGWTGKASTAKADAGGYNIDSNGTNKSIVIRDADVTGGFYGPNATEMGGSFTHNTNDSKASVVFGTKRQEEVKP | – | binding [3]: binds
